# The list shows a part of the results. Shown are side measurements of this screen, not its main read-out; they come without a call. Most of these compounds were active or inconclusive in the main read-out, so they are no random draw. The note in brackets gives the kind of curve behind each potency; many fits are weak.
# Experiment: qHTS Assay for Lipid Storage Modulators in Drosophila S3 Cells;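 on cell number change: cells counted by Cell Tracker Red CMTPX staining in the red channel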
# Settings: BODIPY lipid droplet fluorescence, 18-24 h; for cell number change: measured here: cell count max response, cells fed with added oleic acid
# Method in brief: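 Drosophila S3 cells loaded with oleic acid (400 uM, as added) and compounds at several concentrations; lipid droplets imaged by 488-nm laser-scanning cytometry, 500–530 nm intensity and object ratio to cell channel. Percent activity normalized to 20 uM Triacsin C.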
# [1] = measured here: cell number channel AC50, cells fed with added oleic acid
# [2] = measured here: lipid fluorescence (Fed channel) AC50, cells fed with added oleic acid
compound,measurement,setting,value
CCCc1cc(=O)[nH]c2nnc(SCC(=O)Nc3nnc(SCC)s3)n12,cell number change,,-66.3%
same,AC50,[1],"29.1 µM [falling, single point]"
Cc1cc(S(=O)(=O)N2CCN(CC(=O)NC(C)(C#N)C3CC3)CC2)ccc1Br (stereo not drawn),cell number change,,86.5%
CCS(=O)(=O)NC(C)C(c1cccs1)N1CCN(C)CC1 (stereo not drawn),cell number change,,-71.7%
same,AC50,[1],"29.1 µM [falling, single point]"
same,AC50,[2],"29.1 µM [falling, single point]"
Cc1ccc(CN2C(=O)N/C(=C/c3cc(C)n(-c4ccccn4)c3C)C2=O)cc1,cell number change,,43.5%
same,AC50,[1],"29.1 µM [rising, single point]"
same,AC50,[2],"0.00461 µM [falling, full curve, poor fit]"
COc1ccc(CC(=O)N/N=C(\C)c2cccs2)cc1,cell number change,,-6.61%
same,AC50,[2],"0.58 µM [rising, single point]"
Cn1c(=O)n(C)c2cc(C(=O)Nc3ccc4c(c3)OCO4)ccc21,AC50,[1],"0.164 µM [rising, full curve, poor fit]"
same,AC50,[2],"0.651 µM [rising, partial curve]"
COc1cc(/C=N/Nc2nc(Nc3ccccc3)nc(-n3nc(C)cc3C)n2)cc(OC)c1OC,cell number change,,-22%
same,AC50,[2],"8.2 µM [falling, partial curve, poor fit]"
O=[N+]([O-])c1ccc(-[n+]2nc(-c3ccccc3)nn2-c2ccccc2)cc1,cell number change,,-43.4%
same,AC50,[1],"0.411 µM [falling, full curve, poor fit]"
same,AC50,[2],"0.231 µM [falling, full curve]"
NC(=O)C1(N2CCCCC2)CCN(S(=O)(=O)c2ccc(Cl)s2)CC1,AC50,[2],"29.1 µM [falling, single point]"
O=C(CN1C(=O)COc2ccccc21)NCCN1CCOCC1,cell number change,,21.8%
same,AC50,[2],"29.1 µM [falling, single point]"
CCOc1ccc(S(=O)(=O)N(C)c2ccc(OCC(=O)OCc3c(C)noc3C)cc2)cc1,cell number change,,-35.7%
same,AC50,[1],"20.6 µM [falling, partial curve]"
same,AC50,[2],"16.4 µM [falling, partial curve]"
Cc1cc(NC(=S)NC(=O)/C=C/c2ccc(S(=O)(=O)N3CCOCC3)cc2)ccc1Br,cell number change,,39.1%
same,AC50,[1],"0.461 µM [falling, single point]"
same,AC50,[2],"29.1 µM [rising, partial curve, poor fit]"
Cc1ccc(Nc2nc(=O)c3cccnc3s2)cc1,cell number change,,-34.2%
same,AC50,[1],"18.4 µM [falling, single point]"
same,AC50,[2],"0.326 µM [rising, partial curve]"
C=CCn1c(=O)c2ccccc2n2c(SCc3nnc(-c4ccccc4Br)o3)nnc12,cell number change,,-0.2%
same,AC50,[2],"1.3 µM [rising, partial curve]"
COC(=O)c1c(C)oc2ccc(N(C(C)=O)S(=O)(=O)c3ccccc3)cc12,cell number change,,-38.5%
same,AC50,[1],"1.64 µM [falling, full curve, poor fit]"
same,AC50,[2],"5.17 µM [rising, single point]"
CCC(=O)Nc1c(C)ccc2nsnc12,cell number change,,-17.2%
same,AC50,[2],"0.206 µM [falling, partial curve, poor fit]"
Cc1cc(C(=O)N/N=C/c2c(C)n(C)c3ccccc23)n[nH]1,cell number change,,30.5%
same,AC50,[1],"0.00461 µM [rising, full curve, poor fit]"
same,AC50,[2],"2.31 µM [rising, full curve]"
C=CCn1c(SCC(=O)NC(=O)NCCC)nnc1C1CCCCC1,cell number change,,2.08%
same,AC50,[2],"0.461 µM [falling, partial curve, poor fit]"
COCCCNCCOCCOc1ccccc1-c1ccccc1,AC50,[1],"1.03 µM [falling, partial curve, poor fit]"
O=c1cc(-c2ccccc2Cl)oc2c(NS(=O)(=O)c3cc(Cl)cc(Cl)c3O)ccc(O)c12,cell number change,,-53.1%
same,AC50,[1],"18.4 µM [falling, single point]"
same,AC50,[2],"18.4 µM [falling, single point]"
O=C(C1CC1)N1N=C(c2cccc(Br)c2)CC1(O)C(F)(F)F (stereo not drawn),AC50,[1],"6.51 µM [falling, single point]"
CSc1ccccc1NC(=O)C1=CC(c2cccs2)=NS(=O)(=O)N1C,AC50,[2],"1.16 µM [falling, full curve]"
CCN1CCCC1CN(Cc1cc2ccc(C)cc2[nH]c1=O)C(=S)Nc1ccc(OC)cc1 (stereo not drawn),cell number change,,28.5%
same,AC50,[1],"0.13 µM [rising, full curve, poor fit]"
O=C(Nc1ccccc1C(=O)N1CCN(Cc2ccccc2)CC1)c1ccc(F)cc1,cell number change,,62%
same,AC50,[1],"0.259 µM [rising, partial curve, poor fit]"
COC(=O)c1cc(C(=O)NC(C)C2CC3CCC2C3)cc([N+](=O)[O-])c1 (stereo not drawn),cell number change,,-16.7%
Cc1cccc(NC(=O)CSc2ncnc3nc[nH]c23)c1,AC50,[2],"0.206 µM [rising, full curve, poor fit]"
CS(=O)(=O)N(Cc1ccccc1Cl)c1ccc(C(=O)N2CCCC2)cc1,cell number change,,20.1%
same,AC50,[2],"20.6 µM [falling, single point]"
O=C(NNC(=O)c1ccc2nc[nH]c2c1)c1ccccc1,cell number change,,22.6%
same,AC50,[1],"3.26 µM [falling, single point]"
CNC(=O)c1ccccc1Sc1ccccc1C#N,cell number change,,16%
same,AC50,[2],"6.51 µM [falling, single point]"
CCCn1nnnc1SCC(=O)NCc1cccs1,cell number change,,-4.19%
same,AC50,[2],"29.1 µM [falling, single point]"
CCN(c1ccccc1)S(=O)(=O)c1ccc(C(=O)NCCc2ccc(S(N)(=O)=O)cc2)cc1,cell number change,,16.7%
O=C(O)CCn1[nH]c(=O)c2ccccc2c1=O,cell number change,,-38.3%
same,AC50,[1],"0.231 µM [falling, full curve, poor fit]"
same,AC50,[2],"0.231 µM [falling, full curve, poor fit]"
CC1CCN(C(=O)c2ccc3c(=O)n4c(nc3c2)CCCCC4)CC1,cell number change,,94.3%
same,AC50,[2],"29.1 µM [falling, single point]"
Nc1nc(SCc2ccc(Br)cc2)n[nH]1,cell number change,,13.5%
same,AC50,[2],"2.91 µM [falling, full curve]"
CC1(C(=O)c2ccccc2)C2c3c(ccc4ccccc34)OC(=O)C21C(=O)N1CCOCC1 (stereo not drawn),AC50,[1],"0.116 µM [rising, partial curve, poor fit]"
CCOC(=O)CC1NCCc2c1[nH]c1ccc(OC)cc21 (stereo not drawn),cell number change,,18.5%
same,AC50,[2],"7.31 µM [rising, partial curve]"
O=C(c1cccs1)N1CCN(c2cccc(Cl)c2)CC1,cell number change,,-4.69%
O=C(c1cccs1)N(C(=O)c1cccs1)c1ccccn1,cell number change,,2.53%
same,AC50,[1],"1.84 µM [rising, partial curve]"
same,AC50,[2],"1.64 µM [rising, partial curve]"
Cc1noc(C)c1C(=O)OCC(=O)NC1CC1,cell number change,,-20.5%
same,AC50,[1],"6.51 µM [falling, single point]"
Cc1cccc(N2CCN(Cc3ccc(Br)o3)CC2)c1C,cell number change,,-23.1%
same,AC50,[2],"23.1 µM [falling, single point]"
CC(C)(C)N1NC(=O)Nc2ccccc2C1=O,cell number change,,-31.9%
same,AC50,[1],"7.31 µM [falling, full curve, poor fit]"
COc1ccc(/C=N/NC(=O)c2c(C)nc3ccc(Br)cn23)cc1OC,cell number change,,27.1%
COc1ccc(CCNC(=O)CSc2nnc(-c3cccc(F)c3)o2)cc1OC,cell number change,,-9.42%
same,AC50,[2],"1.84 µM [rising, partial curve]"
COc1ccc(-c2noc(CCC(=O)NCCc3ccccc3)n2)cc1OC,cell number change,,-13.4%
same,AC50,[2],"14.6 µM [rising, partial curve, poor fit]"
CCOC(=O)C1=C(C)OC(N)=C(C#N)C1c1ccc(OC)c(C)c1OC (stereo not drawn),cell number change,,18.1%
Cc1cccc(-n2cc(-c3ccccc3)c3c(NN4CCOCC4)ncnc32)c1,cell number change,,39.4%
same,AC50,[1],"8.2 µM [rising, partial curve, poor fit]"
O=C(COC(=O)CNS(=O)(=O)c1ccccc1)NC12CC3CC(CC(C3)C1)C2,cell number change,,43.2%
CCNc1cc(N2CCOCC2)nc(SC)n1,cell number change,,4.15%
same,AC50,[2],"1.41 µM [rising, partial curve, poor fit]"
COc1cc(CNc2ccc(N3CCCC3)cc2)ccc1OCc1ccccc1F,cell number change,,4.29%
same,AC50,[2],"25.9 µM [rising, single point]"
COc1ccc(C2NC(=O)C(C#N)=C(S)N2c2cccc(C)c2)cc1OC (stereo not drawn),cell number change,,24.6%
same,AC50,[2],"0.13 µM [falling, single point]"
Cn1c(=O)c2c(nc(SCc3cc4c(cc3Cl)OCO4)n2C)n(C)c1=O,cell number change,,2.72%
CCn1c(CN2CCN(C(=O)c3ccco3)CC2)nc2c1c(=O)n(C)c(=O)n2C,cell number change,,14.9%
same,AC50,[2],"29.1 µM [rising, single point]"
O=C(NCc1ccccc1Cl)C1CCCN(S(=O)(=O)c2cccc3nsnc23)C1 (stereo not drawn),cell number change,,104%
same,AC50,[1],"9.2 µM [rising, partial curve]"
same,AC50,[2],"10.3 µM [rising, partial curve]"
COC(=O)C1CCN(c2ccc([N+](=O)[O-])cc2)CC1,AC50,[2],"0.092 µM [falling, full curve]"
COC(=O)c1ccc(C2/C(=C(\O)c3cccc(OC)c3)C(=O)C(=O)N2CCCN(C)C)cc1 (stereo not drawn),cell number change,,-8.51%
same,AC50,[2],"6.51 µM [rising, partial curve]"
CC(=O)C1=C(O)C(=O)N(c2cccnc2)C1c1ccc(Cl)cc1 (stereo not drawn),cell number change,,0.696%
same,AC50,[2],"16.4 µM [falling, single point]"
COc1ccc2nc(C)cc(SCC(=O)N/N=C/c3cccc4ccccc34)c2c1,cell number change,,-134%
same,AC50,[1],"29.1 µM [falling, single point]"
same,AC50,[2],"29.1 µM [falling, single point]"
O=C(O)c1ccc(CSc2nnc(-c3ccncc3)n2-c2ccc(Br)cc2)cc1,cell number change,,23.1%

# Six entries from above, set out differently.
compound | measurement | setting | value
Cc1cc(C(=O)N/N=C/c2c(C)n(C)c3ccccc23)n[nH]1 | AC50 | [1] | 0.00461 µM [rising, full curve, poor fit]
same | AC50 | [2] | 2.31 µM [rising, full curve]
C=CCn1c(SCC(=O)NC(=O)NCCC)nnc1C1CCCCC1 | cell number change |  | 2.08%
same | AC50 | [2] | 0.461 µM [falling, partial curve, poor fit]
COCCCNCCOCCOc1ccccc1-c1ccccc1 | AC50 | [1] | 1.03 µM [falling, partial curve, poor fit]
O=c1cc(-c2ccccc2Cl)oc2c(NS(=O)(=O)c3cc(Cl)cc(Cl)c3O)ccc(O)c12 | cell number change |  | -53.1%

# Pulled one by one from the entries so far (two):
compound,measurement,setting,value
O=C(NCc1ccccc1Cl)C1CCCN(S(=O)(=O)c2cccc3nsnc23)C1 (stereo not drawn),AC50,[1],"9.2 µM [rising, partial curve]"
CCOC(=O)CC1NCCc2c1[nH]c1ccc(OC)cc21 (stereo not drawn),AC50,[2],"7.31 µM [rising, partial curve]"

# From PubChem BioAssay AID2685 (National Center for Advancing Translational Sciences (NCATS), 2010)
